Source: ChEMBL document CHEMBL3988442, “University of Dundee, Small-Polar-MMV Screening Library” (2021).

Mtb growth Cornell: 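Whole-cell assay for inhibitors of Mycobacterium tuberculosis growth, labelled Cornell in the record; the read-out is not stated. The concentration is filed as 10 mM, unlikely as a test dose, so the dose is not known. Higher means stronger inhibition (inferred from two other growth screens of the library). About 53,000 compounds were tested under these conditions; 1.7% (about 900) showed 50% or more at least once.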
Mtb heat-shock: 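Assay on Mycobacterium tuberculosis, filed only as a heat shock assay from Cornell; the read-out is not stated. The concentration is filed as 10 mM, unlikely as a test dose, so the dose is not known. The record gives no direction; compounds that gave an IC50 in retests scored well above the rest, so higher reads as stronger inhibition. Of about 69,000 compounds tested this way, about 930 (1.4%) reached 50% or more in at least one test.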

The filed quantity is “Percent Effect” (%). The record does not define 0% and 100%; most values in the screen are far below 50% and negative numbers occur (in some assays of this library far below -100). This is an unselected part of the compounds tested. A dash means the value is not listed here; it may have been measured.

Compound,Mtb growth Cornell,Mtb heat-shock
CC(C)c1ncncc1C(=O)N1CCCN(Cc2ccccc2)CC1,18.53,-8.309
CC(C)COCC(NC(=O)c1ccccn1)c1ccco1 (stereo not given),13.65,11.45
Cc1ccc(NC(=O)Nc2c[nH]c(=O)[nH]c2=O)c(C)c1,-10.09,2.215
COc1ccccc1OCC(=O)NS(=O)(=O)c1ccc(C)s1,26.09,16.17
CCCN1CCc2nc(SCc3ccc(F)cc3)[nH]c(=O)c2C1,-,-11.7
CCNc1nc(N(C)C)nc(-n2cnc(SC)n2)n1,11.58,-2.542
[H][C@]12CC[C@]([H])(CN(C(=O)CSCCC)C1)N(Cc1ccccn1)C2=O,-,-10.39
CN1CC(C(=O)NCCc2ccc3c(c2)OCO3)CC1=O (stereo not given),2.448,-20.61
CCN1CC(C(=O)NC(C)(C)C)CC1=O (stereo not given),-,6.155
O=C(Nc1ccc(-n2ccc(C(=O)O)n2)cc1)c1ccccc1,33.83,-0.8653
CCC(CC)C(=O)NS(=O)(=O)CCc1ccccc1,24.99,3.132
Cc1cccc(N2CCCN=C2NC(=O)c2cccc(Cl)c2)c1,-,8.828
Cc1nnc(N2CCOC(C)C2)c(C#N)c1C (stereo not given),-,38.37
O=C(O)C(F)(F)F.[H][C@@]12CCN(Cc3ccccc3OC)C[C@]1(COC)CCO2,-1.84,13.67
COc1ccccc1CN1CCC(c2nn(CCN)c3nccnc23)C1 (stereo not given),-9.179,-17.85
Cc1cc(CN(C)Cc2ncc(C(C)(C)C)o2)no1,-27.22,-13.66
Cc1cc(C)cc(CCC(=O)NC(C)c2nnn[nH]2)c1 (stereo not given),-2.717,4.167
Cn1cc(C[C@H]2[C@@H](O)CCN2C(=O)C2CCC2)cn1,15.45,-14.79
CCN(C)CC(C)Cn1cnc(-c2ccccc2)c1-c1cncn1CC (stereo not given),-,-31.34
O=C(CCc1ccc(Cl)s1)N1CCC(N2CCNC2=O)CC1,-,9.118
CN(CCCc1cnn(C)c1)Cc1cc2n(n1)CCCN(C)C2,2.304,14.83
O=C(CC1CCCCC1)N1CCC(c2ncc3c(n2)CCNC3)CC1,-2.319,9.318
O=C(O)C(F)(F)F.[H][C@@]12CN(CC(C)C)C[C@]1([H])C(=O)N(C)C21CCN(C(=O)C(C)C)CC1,-,13.39
NC(=O)N1CCC(C(=O)NC2CCc3nccn3C2)CC1 (stereo not given),-11.45,7.381
CCc1nc(CS(=O)(=O)Cc2noc(C3CC3)n2)cs1,-26.54,4.531
O=C(Nc1ccccc1)N1CC(C(=O)N2CCCC2)C2(CCOCC2)C1 (stereo not given),9.874,-33.95
NC(=O)c1cccc(CN2CCOC(Cn3cccn3)C2)c1 (stereo not given),3.841,0.582
Cc1cnc(CN2CCOC(CN(C)c3cccnn3)C2)cn1 (stereo not given),-26.11,20.45
CN(C)CCCNCCC(Cc1ccccc1)C1CCOC(C)(C)C1.O=C(O)C(=O)O (stereo not given),18.5,18.28
O=C1CCNc2ncc(-c3ccccc3Cl)cc2CN1C1CC1,12.96,39.75
O=c1ncn(-c2cccc(F)c2)c2ncccc12,-22.23,8.299
Cc1cnn(CC2CCCN2C(=O)CCc2ccc3c(c2)OCO3)c1 (stereo not given),-,-6.051
O=C([C@H]1CCCO1)N1CCC2(CCCN(CCOc3ccccc3)C2)C1 (stereo not given in full),-23.58,-17.6
CCNc1cc2c(nn1)CCN(C(=O)c1ccc(CNC(C)=O)o1)C2,-,-3.958
CNc1cnc(CC2COCCN(Cc3cccc(C)n3)C2)cn1 (stereo not given),16.42,10.46
O=C1CCC2(CCN(Cc3nccs3)CC2)CN1CCCO,-5.761,2.334
CC(O)c1cn(C2CCN(C(=O)C3(C)CCCCC3)CC2)nn1 (stereo not given),-44.3,-5.37
Fc1cnc(N2CC3(CCN(Cc4ccsc4)C3)C2)nc1.O=C(O)C(F)(F)F,30.35,-1.24
CC(C)(C(N)=O)S(=O)(=O)c1ccc(Br)cc1,7.461,-5.757
CN(Cc1ccccc1)c1ccc(C(F)(F)F)cn1,-,2.167
Cc1ccc(CN2CCC(c3cnccn3)CC2)s1,0.7302,-17.07
CN1CC(c2ccccc2)CC12CCN(C(=O)c1ccc(Cl)cn1)CC2 (stereo not given),-,-5.927
Cc1noc(C)c1C(=O)NCc1ccnc(OCC(F)(F)F)c1,-,0.8028
O=C(NCCN1CCOCC1)c1n[nH]c(=O)c2ccccc12,1.762,-17.75
O=C(O)C(F)(F)F.O=C(O)C(F)(F)F.[H][C@@]12COC[C@]1(CNC(=O)c1ccccc1)CN(Cc1cccc(C)n1)C2,8.957,-15.75
c1cnnc(-c2noc(CCN3CCCO3)n2)c1,19.68,7.574
c1ccc(CCN2CC(n3cccn3)C2)nc1,-9.048,17.74
CN(C)c1ccc(C(=O)N2CCCC2c2ccc(Cl)cc2)nn1 (stereo not given),23.84,-12.55
CC(C)C[C@H](NC(=O)NC1CCS(=O)(=O)C1)C(=O)NCc1cccnc1 (stereo not given in full),14.71,-10.8
O=C(Cc1ccc(Cl)s1)Nc1ccc2c(c1)C(=O)NC2=O,31.68,-25.07
CCS(=O)(=O)NCCCNCc1c(C)nn(C)c1N(C)C,-,-4.501
O=C(c1cnc2[nH]c(=O)[nH]c(=O)c2c1)N1CCCC1C1CCCC1 (stereo not given),-,-7.182
CCN1CCN(S(=O)(=O)c2ncn(C)c2Cl)CC1,-6.948,20.02
O=C(O)C(F)(F)F.c1cc(CN2CCC3(CCOCC3COCC3CC3)CC2)co1 (stereo not given),-,0.9538
CCN(CC)C(=O)CN(C)C(=O)c1ccc(-c2ccsc2)nc1C,-40.7,-2.005
O=C(NCCNc1ncccn1)C1CCN(C(=O)c2ccoc2)CC1,-35.89,6.156
Cc1ncsc1CCC(=O)N1CCN(CCn2cncn2)CC1,-40.59,-6.799
CN1Cc2ccccc2CC1C(=O)N1CCN(CCS(C)(=O)=O)CC1 (stereo not given),-18.19,-20.33
Cc1ccccc1-c1noc(CN2CCc3nn(C)c(=O)cc3C2)n1,17.34,-4.198
O=S(=O)(Nc1nccs1)c1cc(Cl)cc2c1OCC2,27.82,24
CC(C)c1ccc(OCC(=O)NS(=O)(=O)c2cccnc2)cc1,-,9.619
O=C(O)C(F)(F)F.[H][C@@]12CCN(Cc3nccs3)[C@]1([H])CC[C@H](C(=O)N1CCCCO1)O2,8.462,-47.1
CC(C)N1CC2(CCCN(c3ncc(Cl)cc3F)C2)CCC1=O (stereo not given),41.86,-20.74
CC(C)C(Sc1ccccc1)C(=O)N(C)Cc1nnc2n1CCC2 (stereo not given),-12.22,-26.22
COc1ccccc1CNC(=O)Cn1ncc2c1c(C)nn2C,-,-9.553
COc1c(CNC2CCN(c3ccccn3)CC2)c(C(C)C)nn1C,-4.885,-6.886
Cc1cc(C)n(CC(C)CNC(=O)N(C)Cc2ccco2)n1 (stereo not given),-,-11.98
COCC1CN(Cc2ccc(OC)cc2)S(=O)(=O)c2cnccc2O1 (stereo not given),-16.67,-7.353

Once more, the final 5:

| Compound | Mtb growth Cornell | Mtb heat-shock |
|---|---|---|
| `CC(C)C(Sc1ccccc1)C(=O)N(C)Cc1nnc2n1CCC2` (stereo not given) | -12.22 | -26.22 |
| `COc1ccccc1CNC(=O)Cn1ncc2c1c(C)nn2C` | - | -9.553 |
| `COc1c(CNC2CCN(c3ccccn3)CC2)c(C(C)C)nn1C` | -4.885 | -6.886 |
| `Cc1cc(C)n(CC(C)CNC(=O)N(C)Cc2ccco2)n1` (stereo not given) | - | -11.98 |
| `COCC1CN(Cc2ccc(OC)cc2)S(=O)(=O)c2cnccc2O1` (stereo not given) | -16.67 | -7.353 |